Test [1] addresses HLA-DR counterpart on a chimpanzee specimen (chimpanzee). The test can be described thus: flow cytometry on cells, as in Example 10.
Test [2] has as its target HLA-DR counterpart on crab-eating monkey specimens (crab-eating monkey). The test can be described thus: flow cytometry on cells, as in Example 10. Background: A flow cytometer gives signals particle by particle.

These are yes or no findings as the source states them, for the method shown. Binding can be weak; no strength is given.

Experimental findings from patent US20040091974A1 are described below.

B1: HD8 (antibody, IgG2, V domains shown)
VH: QVQLQHSGPGLVKPSQTLSLTCAISGDSVSSNSASWNWIRQSPSRGLEWLGRTYYRSKWYNDYAVSVKSRIVINPDTSKNQFSLQLNSVTPEDTAVYYCARENFYGSETCHKKYYCYGMDVWGQGTTVTVSS
VL: AIQLTQSPSSLSASVGDRVTITCRASQGISSALAWYQQKPGKAPKLLIYDASSLESGVPSRFSGSGSGTDFTLTISSLQPEDFATYYCQQFNSFPLTFGGGTKVEIK
For B1, the binding entry in test [1] and in test [2] was “binds” throughout.
